The target of this assay is T1, Rasal1 (mouse (endogenous in mouse hippocampus)) (UniProt Q9Z268).
T1 sequence: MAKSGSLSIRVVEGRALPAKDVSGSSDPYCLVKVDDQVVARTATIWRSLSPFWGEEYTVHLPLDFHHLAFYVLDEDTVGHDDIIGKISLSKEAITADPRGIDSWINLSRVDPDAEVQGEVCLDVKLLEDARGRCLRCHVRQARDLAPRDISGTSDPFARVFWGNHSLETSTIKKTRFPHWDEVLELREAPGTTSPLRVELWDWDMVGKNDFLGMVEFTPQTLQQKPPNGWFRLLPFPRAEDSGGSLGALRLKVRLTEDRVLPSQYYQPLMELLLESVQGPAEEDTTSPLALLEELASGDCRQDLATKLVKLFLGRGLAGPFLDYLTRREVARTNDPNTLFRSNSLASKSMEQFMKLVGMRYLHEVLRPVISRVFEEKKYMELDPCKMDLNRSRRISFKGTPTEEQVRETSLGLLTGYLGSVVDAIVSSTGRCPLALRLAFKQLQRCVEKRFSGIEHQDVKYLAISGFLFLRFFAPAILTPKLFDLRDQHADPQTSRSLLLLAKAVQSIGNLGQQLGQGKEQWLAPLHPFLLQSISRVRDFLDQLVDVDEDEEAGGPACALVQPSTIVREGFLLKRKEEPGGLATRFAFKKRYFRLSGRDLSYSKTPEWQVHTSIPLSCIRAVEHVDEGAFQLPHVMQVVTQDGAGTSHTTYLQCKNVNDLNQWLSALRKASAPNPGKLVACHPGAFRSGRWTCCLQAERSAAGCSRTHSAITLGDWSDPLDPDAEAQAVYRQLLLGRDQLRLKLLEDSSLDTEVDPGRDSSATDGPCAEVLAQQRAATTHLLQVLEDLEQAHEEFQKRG
In words: co-IP; hippocampal protein (300 μg) incubated with Protein A/G Plus-Agarose beads pretreated with Rasal1 antibody (GenScript) at 4 °C; washed five times with RIPA buffer; Western blot.

Results are given in words; binding and its absence hold for the method and conditions named. Binding seen in cells or lysates may run through a third protein. Binding can be weak; no strength is given.

Regarding “protein kinase C (PKC) (mouse (endogenous in mouse brain tissue)) (enzyme)”, the binding entry is listed as “binds”.

Turning to “β-tubulin (mouse (endogenous in mouse brain tissue))”, the binding entry is “binds”.

Values taken from PMC10800070.
